The results in this text go back to paper doi:10.1101/2022.04.05.487156.

These are yes or no findings as the source states them, for the method shown. Binding seen in cells or lysates may run through a third protein. Some binding calls cover weakened binding; strength is not graded here. Where a sequence is shown, tags or fusion partners need not be part of it.

This assay concerns the target T1, Flag-CARP2 (human) (UniProt Q8WZ73).
T1 sequence: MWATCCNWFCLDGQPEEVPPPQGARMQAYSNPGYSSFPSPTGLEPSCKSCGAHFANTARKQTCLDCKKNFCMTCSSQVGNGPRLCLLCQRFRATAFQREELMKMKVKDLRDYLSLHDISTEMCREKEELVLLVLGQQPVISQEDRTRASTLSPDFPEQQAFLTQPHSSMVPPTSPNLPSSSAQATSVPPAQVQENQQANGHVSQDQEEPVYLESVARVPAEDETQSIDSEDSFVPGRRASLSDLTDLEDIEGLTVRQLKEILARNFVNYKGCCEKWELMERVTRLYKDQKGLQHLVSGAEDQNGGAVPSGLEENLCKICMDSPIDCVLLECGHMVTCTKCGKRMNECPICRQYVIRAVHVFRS
The assay can be described thus: co-IP.

B1: Golgin45-V5-6Xhis (protein, UniProt Q9H2G9 1-400)
chain: MTTKNLETKVTVTSSPIRGAGDGMETEEPPKSVEVTSGVQSRKHHSLQSPWKKAVPSESPGVLQLGKMLTEKAMEVKAVRILVPKAAITHDIPNKNTKVKSLGHHKGEFLGQSEGVIEPNKELSEVKNVLEKLKNSERRLLQDKEGLSNQLRVQTEVNRELKKLLVASVGDDLQYHFERLAREKNQLILENEALGRNTAQLSEQLERMSIQCDVWRSKFLASRVMADELTNSRAALQRQNRDAHGAIQDLLSEREQFRQEMIATQKLLEELLVSLQWGREQTYSPSVQPHSTAELALTNHKLAKAVNSHLLGNVGINNQKKIPSTVEFCSTPAEKMAETVLRILDPVTCKESSPDNPFFESSPTTLLATKKNIGRFHPYTRYENITFNCCNHCRGELIAL
On to B1, for which the binding entry is reported as “binds”.
